For 105 sequences, z-score results are on record in PubChem BioAssay AID1347423 (Functional Genomics Laboratory (NCATS/FGL), 2020).

Screen size: about 52,000 sequences; about 210 (0.4%) were called active.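 Rule for the calls: active = gene whose silencing raises cell survival under the drug, median off-target-corrected z-score across its silencing RNAs 2 or more; inactive = the rest.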 The list shows a part of the results.

This assay can be described thus: Resistance to Poly (ADP-Ribose) Polymerase inhibitor: Gene Identification via Genome-wide siRNA Screen. The conditions noted are these: mouse BRCA2 R2336H ES cells, olaparib, CellTiter-Glo viability; stronger effect = higher value. An outline of the steps: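 Mouse BRCA2 R2336H ES cells were reverse-transfected with siRNA (20 nM final), treated at 48 h with 500 nM olaparib, and read by CellTiter-Glo after 72 h. Scores: MAD-based z per siRNA, median per gene, seed off-target correction.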
With CCUGGACGAGUGCUGAAGATT against Crry, the z-score was inactive: -1.11.

As to GCCAAAGGACAGUUGAAGUTT against Gcs1, the z-score is inactive: -0.397.

On to GGUAUUGAGUAUCUUAGGUTT against Atf7, for which the z-score is inactive: 3.37.

Take “CCUGUUCAUAUGUAGUGCATT against 1810020G14Rik”: the z-score is inactive: -0.474.

On to CCAACACUAUUACUGUAAATT against Arg2, for which the z-score was inactive: 0.719.

With GCUAGUUGAUAGUCAGAUATT against Tbrg4, the z-score was inactive: 0.00469.

For the sequence GCUCAGCUAGCAGAAAUUCTT against Nalp2, the z-score is inactive: -0.139.

On to GCAAUCAAGCUUGAAAGUUTT against Dusp4, for which the z-score was inactive: 1.28.

As for GGCUGAGUGAAUUGGGAAUTT against Olfr419, the z-score is inactive: -1.01.

In the case of CCAAUAGAGAUGCAAAUCATT against Nek6, the z-score is inactive: 0.386.

With CGAACAUUCGGAAAUGUCATT against Ifnb1, the z-score is inactive: -0.216.

For GCUGCAUCGACAUAUCAGATT against Tle2, the z-score is inactive: -0.41.

Regarding GGGAUAAUGCAUGUGAAAATT against Pdk3, the z-score is inactive: -1.67.

Consider CGAAUUAUGGCACCGUCAATT against P2rx7, for which the z-score is inactive: 2.

Turning to CGUAGACUUAACCUACAAATT against Dnchc2, the z-score is inactive: 0.927.

Regarding CCAUGAAUGAAGAUCUGUUTT against Taar7a, the z-score is inactive: -1.61.

With GCCUCCAGUUGUGAAGUUGTT against Klrg1, the z-score was inactive: 0.966.

In the case of CCCUAAAAACACCUGAGAGTT against BC025105, the z-score is inactive: -1.69.

For the sequence CCAACAGAACCAAUAAAGCTT against Btbd9, the z-score is inactive: 0.625.

For the sequence “CCAUUCUACACUUUUCCACTT against 2310043L02Rik”, the z-score was inactive: -0.942.

As for “GGAGCAUUCUCCAUCUAGCTT against 2010308M01Rik”, the z-score was inactive: -0.599.

On to GGUUAUUUAGCUAGCUUAGTT against Capza2, for which the z-score was inactive: 0.306.

Consider GCAGUUCAUGUCCUGAAUATT against Olfr308, for which the z-score is inactive: -0.0596.

As for GGUGUAAUGUCUUUGCUAATT against Spag6, the z-score is inactive: 0.558.

Regarding GGUACCUUAAACUCAUGAATT against Ifnb1, the z-score was inactive: 1.41.

As to GGGUUUCAACCGUCACCUGTT against Pygl, the z-score was inactive: -0.885.

In the case of GCGUGAACCUCCUUCUUGATT against Ramp3, the z-score was inactive: -0.741.

Regarding GGACUUGAAAGACCUUGGATT against Map2k4, the z-score is inactive: -0.358.

For the sequence GAUAUUCCUGCUCACAGUGTT against Olfr1265, the z-score was inactive: 1.19.

As to GGAAUGUCAGUCAACACCGTT against Tcfap2b, the z-score was inactive: -0.46.

For the sequence GGGAGUAUAAGAGAAACCATT against Chgb, the z-score was inactive: -0.988.

On to CGGCAGCAGAAUAAAUAUGTT against Il12b, for which the z-score is inactive: -0.151.

With CCGUGAAUAAGGUCAUCUUTT against Tesp1, the z-score is inactive: 0.672.

For CCAUUUACCUCACUUGUUUTT against Asb8, the z-score was inactive: 0.749.

For the sequence “GGAAAGAUUGUACCAGUUGTT against 0610011D08Rik”, the z-score is inactive: -1.18.

With GGAAGAAAGGUCUAGAAGCTT against Tor2a, the z-score was inactive: 0.725.

For “GGCAAAGAUUCCAAAAGAGTT against 1110063F24Rik”, the z-score was inactive: 1.2.

For the sequence GGUUGGCAUCAACUACCAATT against Tuba4, the z-score is inactive: 0.304.

As to GGUCUUCUACUCCUUCUCATT against Slc6a19, the z-score is inactive: -1.35.

For “GGAACAAAGGAUGAUAAUUTT against 2610016F04Rik”, the z-score was inactive: -0.861.

With “GGAACACAAAAGCAAAGAUTT against 1110021E09Rik”, the z-score is inactive: -1.49.

With GCUAGGAGAACCUACAUACTT against Adcy4, the z-score was inactive: -0.848.

As to GGUACAAGACUGUCAUGUGTT against Mrpl3, the z-score was inactive: 0.789.

For “GCCCAGCUCAAAUCUCCAUTT against 9230102D03Rik”, the z-score was inactive: -0.18.

Consider GGAUGUAUCUGAACAAUACTT against Gbl, for which the z-score was inactive: 0.599.

For the sequence CCUGCUUAUUUAUGUACGATT against Tob2, the z-score was inactive: -0.0512.

Take GCCUUGACUGACAGACCCATT against Zfp114: the z-score was inactive: -0.642.

Regarding “GGGUUUUAUCUGUAGUACATT against 5830417I10Rik”, the z-score was inactive: 0.313.

In the case of GGCAAAAAGGAAUUUCGGCTT against Padi2, the z-score was inactive: 0.909.

On to GGGAACUGUACUGUAAUUUTT against Olfr615, for which the z-score was inactive: -1.19.

For the sequence CCGAAGUGCCAUGCCAUUUTT against Pdlim1, the z-score is inactive: -1.7.

In the case of CCAGUAUGGAAGGUACUCATT against Scfd1, the z-score was inactive: -0.348.

For GGGAUAGCACAAGUGAGUCTT against Slc13a3, the z-score is inactive: -0.0761.

With GGGCAACUAUCCCGUUACUTT against Vps11, the z-score was inactive: 0.368.

Turning to “GCACAUAUGUUUGUUAAGCTT against D930025H04”, the z-score was inactive: 0.744.

Consider GGACCUGUUUGAAGAAAAGTT against Gnai2, for which the z-score is inactive: -0.66.

For the sequence GGAUAAACUGUAUGGCUUCTT against Mmp9, the z-score is inactive: 1.51.

In the case of GGACGUAGCUUGGAAAGAUTT against Flcn, the z-score was inactive: -1.57.

With CGGAGCCUAUAACAUAUUUTT against Nid1, the z-score was inactive: 1.14.

Consider CCUAGCUAAUAAAACAUGUTT against Ltb4dh, for which the z-score is inactive: 0.0062.

“GCACUUUUCAGUGAUAACATT against 2410018M08Rik”: the z-score was inactive: -0.631.

For GGGAAAAAUAAACUAAGUGTT against Rwdd1, the z-score is inactive: -1.93.

Turning to GGUGAGCGAGAUAAGAAGCTT against Ube2s, the z-score was inactive: 0.4.

On to GUGGUCGGAAACACAAAGATT against Snrp1c, for which the z-score was inactive: -3.13.

For GGUCAGCAUCACCUACGAUTT against Prss8, the z-score is inactive: -0.576.

Consider GGUAGUGGAGCUGAAUGUUTT against Kctd8, for which the z-score was inactive: -1.94.

For the sequence GGGUUACCCAGCAUUCUUUTT against Pex26, the z-score is inactive: -0.0448.

As for “CGUGGAAGACAUACAACCCTT against 5930418K15Rik”, the z-score is inactive: 1.22.

Consider GGAUGGUACAGGUCUGGUGTT against Fgfr3, for which the z-score is inactive: 1.37.

As for “CCUAUAUCAACAUUAGAGATT against 9330174J19Rik”, the z-score was inactive: 0.114.

As to GGCCACAGAUCUUCUGGUGTT against Calml4, the z-score was inactive: 0.529.

As for GGAAAUGAACAGAAAUCACTT against Wdr4, the z-score was inactive: 0.858.

For the sequence GGAUGACGAUUAUAGAGAATT against Cap2, the z-score was inactive: -0.575.

As to GCAUGAGUUAUCAUAAUCATT against Itgb2, the z-score was inactive: 0.203.

In the case of GGAGCUUUAUUUUAUACCUTT against Ppil2, the z-score is inactive: 1.23.

As for “GGAAGAAGUCUGAUACAUCTT against E130306M17Rik”, the z-score was inactive: 0.0313.

Consider GGUGAGAUGGUUCAACAUGTT against Olfr77, for which the z-score was inactive: -0.497.

Regarding GGAUAUUACUCUGUUGAAATT against Ppp2ca, the z-score is inactive: 0.929.

CCUCUUAUACCUUUAACUCTT against Skd3: the z-score is inactive: 1.15.

Take GGAGUACCUGGAGUUCUUCTT against Zbtb7: the z-score was inactive: 0.679.

As for GGAGUUUGAGAUCAUCUUCTT against Nxn, the z-score is inactive: 0.479.

Turning to GGUCUGCAUUUGCUUUCCUTT against Olr1, the z-score is inactive: -1.91.

CCUCUGUGAUUUCAUUCUUTT against Hhip: the z-score is inactive: 0.539.

With GGUUCAAGGUGAAGACUCCTT against Pap, the z-score is inactive: -1.06.

Consider “GGGAGAAACCAAGGAACUCTT against 2410080P20Rik”, for which the z-score was inactive: 0.319.

Turning to GGACAAUGGGCAAGUCACCTT against Rnase1, the z-score was inactive: 0.649.

Take CCCUCAUGUUUAGCGAGCATT against Kcnj3: the z-score is inactive: 0.481.

Regarding GGUACAAGCACUCCUGGAATT against Ccs, the z-score is inactive: -0.508.

In the case of “GGAGCUCCUACCAAGACUUTT against 8230402K04Rik”, the z-score was inactive: -0.0778.

As for GGAAGACGUAUUUGUACACTT against Nsep1, the z-score is inactive: 0.551.

Take GGAAAAGUGCAUUUUGCUGTT against Tex261: the z-score is inactive: -0.5.

As to GGGUUUCUGUAAUGACUAUTT against Zfp113, the z-score was inactive: -1.87.

In the case of CCGACCAAUGCAUUGACAATT against Lcn2, the z-score is inactive: 0.265.

Take GGGUGUGCCUGAAUUACACTT against Ubn1: the z-score was inactive: -1.

Turning to GGAAAAAUGCGAACUUACUTT against Npr2, the z-score was inactive: 1.04.

In the case of GGGUGCAUUUUAAAUACUATT against Spred2, the z-score was inactive: -0.641.

As for GGACUUGUGGCUCAUUGAGTT against BC023754, the z-score is inactive: -0.0781.

Turning to “CCGGGUACAGUCUUUUUGGTT against 8030466O12Rik”, the z-score was inactive: -1.25.

Regarding “GGAUCUAUUGAUGGUUCAUTT against 1810034M08Rik”, the z-score was inactive: -1.6.

Turning to GGCUGUGGUUGUAUCAUGATT against C2b, the z-score was inactive: 0.255.

As to GGAACAGGACAAUGACAGUTT against Gzme, the z-score is inactive: -0.833.

Take GCGCAAGCCGUAUUCGAAGTT against Hoxc12: the z-score was inactive: -0.217.

With GGGUUGGAAAGGUAUCUUATT against Timp4, the z-score was inactive: 0.934.

Consider GUUUUAGGCAACCUUGGGUTT against Olfr1038, for which the z-score was inactive: 0.364.

As for “GGCCUUGUACACUUUGAUGTT against 1110057K04Rik”, the z-score was inactive: 0.71.
